The subject of this test is CD2F1 mice, L1210 leukemia ip, survival T/C. The experiment in a line: NCI In Vivo Anticancer Drug Screen. Data for tumor model L1210 Leukemia (intraperitoneal) in CD2F1 (CDF1) mice. The note with it: higher T/C = longer survival. The method in brief: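 Mice carrying a transplanted tumor received test compound or vehicle alone. The value is the measurement in the treated group divided by that in the vehicle-treated control group.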

[1] abbreviates: T/C endpoint: mean survival time, dose: 100.0 mg/kg/injection, schedule: Q04DX002 (ip), vehicle: saline with Tween-80.
The mark [2] stands for this setting: T/C endpoint: mean survival time, dose: 200.0 mg/kg/injection, schedule: Q04DX002 (ip), vehicle: saline with Tween-80.
[3] abbreviates: T/C endpoint: mean survival time, dose: 400.0 mg/kg/injection, schedule: Q01DX009 (ip), vehicle: other.
[4] abbreviates: T/C endpoint: mean survival time, dose: 400.0 mg/kg/injection, schedule: Q04DX002 (ip), vehicle: saline with Tween-80.
Where [5] appears, read: T/C endpoint: mean survival time, dose: 200.0 mg/kg/injection, schedule: Q04DX003 (ip), vehicle: saline with Tween-80.
Setting [6] is: T/C endpoint: mean survival time, dose: 400.0 mg/kg/injection, schedule: Q04DX003 (ip), vehicle: saline with Tween-80.
The mark [7] stands for this setting: T/C endpoint: mean survival time, dose: 75.0 mg/kg/injection, schedule: Q01DX001 (ip), vehicle: other.
Where [8] appears, read: T/C endpoint: mean survival time, dose: 150.0 mg/kg/injection, schedule: Q01DX001 (ip), vehicle: other.
Setting [9] is: T/C endpoint: mean survival time, dose: 300.0 mg/kg/injection, schedule: Q01DX001 (ip), vehicle: other.

The list does not hold the whole screen: it gathers tests that were run many times, whatever their T/C, doses with no T/C, and many T/C values between a quarter and a half above the control. Further doses and runs are listed elsewhere. T/C is the treated group as % of the vehicle group. Some entries give survivors of the animals treated and no T/C: the source holds a T/C of zero for them, seemingly a mark for toxic or unscored doses. Some survivor counts are full or nearly so, which does not show that the dose was tolerated: the source hardly ever lists a survival T/C far under the control, and the zero likely stands for such cases as well. Survivors were counted at the toxicity check, usually on the fifth day, unless a day is given; later deaths do not show. Schedules are NCI's codes, read here as Q, the interval in days (D) or hours (H), X, the number of doses. Some entries hold several experiments; their values stand side by side, smallest first. For survival time, this PubChem deposit counts one and a half times the control or more as active, and values a quarter to a half above the control carry no call in these data; other NCI protocols may use other cut-offs. Some T/C values carry the count of animals alive at the toxicity check (mostly the fifth day); where none is given, no animal had died by that day.

Turning to `C[CH2][Sn]1([CH2]C)[O]C2C(CO)OC(n3cnc4c(N)ncnc43)C2[O]1` (stereo unspecified), the survivor count is 0 of 6 (T/C endpoint: mean survival time, dose: 25.0 mg/kg/injection, schedule: Q01DX005 (ip), vehicle: other); 0 of 6 (T/C endpoint: mean survival time, dose: 50.0 mg/kg/injection, schedule: Q01DX005 (ip), vehicle: other); 0 of 6 (T/C endpoint: mean survival time, dose: 100.0 mg/kg/injection, schedule: Q01DX005 (ip), vehicle: other); 0 of 6 (T/C endpoint: mean survival time, dose: 200.0 mg/kg/injection, schedule: Q01DX005 (ip), vehicle: other).
Turning to `COc1cc(OC)c(NC(=O)N2CCN(C)CC2)cc1Cl`, under “T/C endpoint: mean survival time, dose: 200.0 mg/kg/injection, schedule: Q01DX009 (ip), vehicle: saline with Tween-80”, the survivor count was 0 of 3.
`COc1ccc(NC(=O)Nc2cccc(Cl)c2)c(Cl)c1`: the survivor count under setting [1] is 3 of 3 and the survivor count under setting [2] was 3 of 3.
As to `c1ccc2[nH]c(C3CCCCN3)cc2c1` (stereo unspecified), for the setting “T/C endpoint: mean survival time, dose: 400.0 mg/kg/injection, schedule: Q01DX001 (ip), vehicle: saline”, the survivor count was 0 of 6.
`Cc1ccc(CN(C)N=Nc2ccc(C(=O)O)cc2)cc1`: the survivor count under setting [3] is 0 of 3.
Regarding `CN(C)CCC(=O)c1ccc([N+](=O)[O-])cc1`, the survivor count is on record as 3 of 6 (T/C endpoint: mean survival time, dose: 10.0 mg/kg/injection, schedule: Q04DX003 (ip), vehicle: saline with Tween-80) and 0 of 6 (T/C endpoint: mean survival time, dose: 20.0 mg/kg/injection, schedule: Q04DX003 (ip), vehicle: saline with Tween-80).
Consider `CC1CN(C2(c3ccccc3)CCCCC2)CCC12OCCO2` (stereo unspecified), for which, under setting [4], the survivor count is 0 of 3.
As to `O=C(CBr)CC(=O)Nc1ccccc1`, the survivor count under setting [5] is 5 of 6.
As for `Cc1[nH]c(=O)[nH]c(=O)c1NC(=O)c1ccccc1[N+](=O)[O-]`, the survivor count reads like this: (T/C endpoint: mean survival time, dose: 100.0 mg/kg/injection, schedule: Q04DX003 (ip), vehicle: saline with Tween-80) 2 of 6; under setting [5], 3 of 6; under setting [6], 1 of 6.
As for `CCN(CC)CC(C)(C)C(=O)/C=C/c1ccc(/C=C/C(=O)C(C)(C)CN(CC)CC)cc1`, the survivor count (T/C endpoint: median survival time, dose: 60.0 mg/kg/injection, schedule: Q01DX005 (ip), vehicle: saline) was 0 of 6.
Consider `O=C(COc1ccc(Cl)c(Cl)c1)Nc1ccc[n+](Cc2cccc(Cl)c2S(=O)(=O)F)c1`, for which, under setting [6], the survivor count is 3 of 6.
With `CC1=CC(C)(C)Nc2ccc(CSc3ccccc3)cc21`, the survivor count is reported as 5 of 6 (T/C endpoint: mean survival time, dose: 100.0 mg/kg/injection, schedule: Q01DX009 (ip), vehicle: DMSO); 2 of 6 (T/C endpoint: mean survival time, dose: 200.0 mg/kg/injection, schedule: Q01DX009 (ip), vehicle: DMSO); 0 of 6 (T/C endpoint: mean survival time, dose: 200.0 mg/kg/injection, schedule: Q01DX009 (ip), vehicle: other); 0 of 6 (T/C endpoint: mean survival time, dose: 400.0 mg/kg/injection, schedule: Q01DX009 (ip), vehicle: DMSO); 0 of 6 under setting [3].
In the case of `CC1CN1C(=O)Nc1cccc2c(NC(=O)N3CC3C)cccc12` (stereo unspecified), the T/C (T/C endpoint: mean survival time, dose: 18.7 mg/kg/injection, schedule: Q01DX009 (ip), vehicle: Klucel (hydroxypropylcellulose) (HPC)) was 140 % of control.
For `CC(=O)OCC1C(OC(C)=O)CC2CCC1N2C#N` (stereo unspecified), the survivor count is, setting by setting: (T/C endpoint: mean survival time, dose: 100.0 mg/kg/injection, schedule: Q04DX002 (ip), vehicle: Klucel (hydroxypropylcellulose) (HPC)) 3 of 3; (T/C endpoint: mean survival time, dose: 400.0 mg/kg/injection, schedule: Q04DX002 (ip), vehicle: Klucel (hydroxypropylcellulose) (HPC)) 3 of 3.
In the case of `CC(=O)Nc1cccc(N=Cc2ccc(N(CCOS(C)(=O)=O)CCOS(C)(=O)=O)cc2C)c1`, the T/C was 138 % of control (T/C endpoint: mean survival time, dose: 12.0 mg/kg/injection, schedule: Q01DX009 (ip), vehicle: saline with Tween-80); 143 % of control (T/C endpoint: mean survival time, dose: 12.5 mg/kg/injection, schedule: Q01DX009 (ip), vehicle: saline with Tween-80); 147 % of control (T/C endpoint: mean survival time, dose: 18.0 mg/kg/injection, schedule: Q01DX009 (ip), vehicle: saline with Tween-80).
In the case of `O=CC(NC(=O)N(CCCl)N=O)C(O)C(O)C(O)CO` (stereo unspecified), the T/C was 140 % of control (T/C endpoint: mean survival time, dose: 1.87 mg/kg/injection, schedule: Q01DX009 (ip), vehicle: saline); 148 % of control (T/C endpoint: mean survival time, dose: 1.88 mg/kg/injection, schedule: Q01DX009 (ip), vehicle: citric acid); 147 % of control (T/C endpoint: mean survival time, dose: 1.9 mg/kg/injection, schedule: Q01DX009 (ip), vehicle: water); 128 % of control (T/C endpoint: mean survival time, dose: 4.0 mg/kg/injection, schedule: Q01DX001 (ip), vehicle: water); 134 % of control (T/C endpoint: mean survival time, dose: 6.25 mg/kg/injection, schedule: Q01DX001 (ip), vehicle: saline); 138 % of control (T/C endpoint: mean survival time, dose: 7.0 mg/kg/injection, schedule: Q01DX001 (ip), vehicle: saline). In addition, the T/C is 147 % of control [5 of 6 alive] (T/C endpoint: mean survival time, dose: 7.5 mg/kg/injection, schedule: Q01DX009 (ip), vehicle: citric acid) and 125 % of control (T/C endpoint: median survival time, dose: 9.0 mg/kg/injection, schedule: Q01DX001 (ip), vehicle: saline). In addition, the survivor count runs as follows: (T/C endpoint: mean survival time, dose: 15.0 mg/kg/injection, schedule: Q01DX009 (ip), vehicle: citric acid) 3 of 6 and 6 of 6; (T/C endpoint: mean survival time, dose: 30.0 mg/kg/injection, schedule: Q01DX009 (ip), vehicle: citric acid) 0 of 6 and 5 of 6; (T/C endpoint: mean survival time, dose: 30.0 mg/kg/injection, schedule: Q01DX009 (ip), vehicle: saline) 6 of 6; (T/C endpoint: mean survival time, dose: 30.0 mg/kg/injection, schedule: Q01DX009 (ip), vehicle: water) 6 of 6; (T/C endpoint: mean survival time, dose: 64.0 mg/kg/injection, schedule: Q01DX001 (ip), vehicle: water) 5 of 6.
For the compound `Nc1ccc(N=Nc2cccnc2)cc1`, for the setting “T/C endpoint: mean survival time, dose: 400.0 mg/kg/injection, schedule: Q04DX002 (ip), vehicle: other”, the survivor count is reported as 1 of 3.
In the case of `CC(O)CC1CCCC(C)N1` (stereo unspecified), the survivor count (T/C endpoint: mean survival time, dose: 400.0 mg/kg/injection, schedule: Q01DX001 (ip), vehicle: saline with Tween-80) is on record as 0 of 6; the survivor count under setting [4] was 0 of 3 and 1 of 6.
As to `CCN1/C(=C\c2ccc3cc(OC)ccc3[n+]2CC)[Se]c2ccc(OC)cc21`, the survivor count reads like this: (T/C endpoint: mean survival time, dose: 19.0 mg/kg/injection, schedule: Q01DX001 (ip), vehicle: other) 0 of 6; (T/C endpoint: mean survival time, dose: 38.0 mg/kg/injection, schedule: Q01DX001 (ip), vehicle: other) 0 of 6; under setting [7], 0 of 6; under setting [8], 0 of 6; under setting [9], 0 of 6.
Take `CCN(CC)C(=O)SCCSC(=O)N(CC)CC`: the survivor count under setting [1] is recorded as 3 of 3.
As for `O=C(O)c1cccnc1-c1ccccc1.[Cu+2]`, the survivor count by setting is: under setting [7], 0 of 6; under setting [8], 0 of 6; under setting [9], 0 of 6.
Turning to `Nc1nc(N)c2nc(COc3ccc(C(=O)NC(CCC(=O)O)C(=O)O)cc3)cnc2n1` (stereo unspecified), the T/C runs as follows: (T/C endpoint: mean survival time, dose: 0.38 mg/kg/injection, schedule: Q01DX009 (ip), vehicle: sodium bicarbonate) 125 % of control; (T/C endpoint: mean survival time, dose: 0.75 mg/kg/injection, schedule: Q01DX009 (ip), vehicle: sodium bicarbonate) 143 % of control; (T/C endpoint: mean survival time, dose: 1.5 mg/kg/injection, schedule: Q01DX009 (ip), vehicle: saline with Tween-80) 126 % of control. The survivor count (T/C endpoint: mean survival time, dose: 6.0 mg/kg/injection, schedule: Q01DX009 (ip), vehicle: saline with Tween-80) is recorded as 6 of 6.
With `O=NN(CCCl)C(=O)NC1CCCN(Cc2ccccc2)C1` (stereo unspecified), the T/C (T/C endpoint: mean survival time, dose: 25.0 mg/kg/injection, schedule: Q01DX001 (ip), vehicle: saline with Tween-80) was 131 % of control.
In the case of `N#CCCN=C1C=CC(=C(c2ccc(NCCC#N)cc2)c2ccc(Cl)cc2Cl)C=C1`, the survivor count is listed as 1 of 3 under setting [2] and 0 of 3 under setting [4].

The record behind these values is PubChem BioAssay AID256 (DTP/NCI, 2004).
